Laboratory results reported in PMC5339343, “Evaluation of Rint1 as a modifier of intestinal tumorigenesis and cancer risk” (PLoS ONE, 2017).
No constants are given. Whether binding was seen depends on the method and setting. In cells and extracts the contact can be indirect. Some binding calls cover weakened binding; strength is not graded here.

Amino acid sequences for entries named in this document (tags omitted). A change or cut given only in a name is not applied to a line headed by its entry.
UniProt Q6NUQ1: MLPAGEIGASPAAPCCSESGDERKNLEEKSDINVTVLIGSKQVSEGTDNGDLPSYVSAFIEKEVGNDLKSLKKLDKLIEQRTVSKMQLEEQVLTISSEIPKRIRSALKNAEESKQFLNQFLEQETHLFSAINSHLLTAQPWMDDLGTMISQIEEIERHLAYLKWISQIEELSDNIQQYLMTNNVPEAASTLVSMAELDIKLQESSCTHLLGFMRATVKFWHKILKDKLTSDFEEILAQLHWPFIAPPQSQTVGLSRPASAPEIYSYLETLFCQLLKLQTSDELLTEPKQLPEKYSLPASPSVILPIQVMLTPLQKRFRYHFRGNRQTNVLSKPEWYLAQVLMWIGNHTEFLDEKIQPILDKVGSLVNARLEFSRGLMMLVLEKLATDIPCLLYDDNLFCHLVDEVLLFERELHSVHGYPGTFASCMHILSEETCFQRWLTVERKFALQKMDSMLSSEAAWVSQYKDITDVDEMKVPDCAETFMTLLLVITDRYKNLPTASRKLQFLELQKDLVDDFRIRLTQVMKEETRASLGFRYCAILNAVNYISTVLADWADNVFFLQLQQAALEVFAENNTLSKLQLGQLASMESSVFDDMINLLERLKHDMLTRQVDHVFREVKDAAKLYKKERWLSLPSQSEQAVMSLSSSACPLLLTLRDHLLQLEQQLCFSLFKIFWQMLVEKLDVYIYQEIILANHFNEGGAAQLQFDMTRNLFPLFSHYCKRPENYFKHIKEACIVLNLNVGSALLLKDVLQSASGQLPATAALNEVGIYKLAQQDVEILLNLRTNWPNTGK

How the values were obtained:
Test in all cases: co-IP; FLAG-RINT1 plasmids transfected into HEK293T; lysate in TNE buffer (10 mM Tris acetate, 0.5% NP-40, 2 mM EDTA); anti-FLAG M2 affinity gel overnight, eluted with FLAG peptide; blot for endogenous ZW10
[1] = target: FLAG-tagged full-length human RINT1 I152M (human) (UniProt Q6NUQ1)
[2] = target: FLAG-tagged full-length human RINT1 I152M; I168T (human) (UniProt Q6NUQ1)
[3] = target: FLAG-tagged full-length human RINT1 I168T (human) (UniProt Q6NUQ1)
[4] = target: FLAG-tagged full-length human RINT1, wild type (human) (UniProt Q6NUQ1)

Measured: binding

B1: endogenous ZW10 (protein, UniProt O43264 1-779)
chain: MASFVTEVLAHSGRLEKEDLGTRISRLTRRVEEIKGEVCNMISKKYSEFLPSMQSAQGLITQVDKLSEDIDLLKSRIESEVRRDLHVSTGEFTDLKQQLERDSVVLSLLKQLQEFSTAIEEYNCALTEKKYVTGAQRLEEAQKCLKLLKSRKCFDLKILKSLSMELTIQKQNILYHLGEEWQKLIVWKFPPSKDTSSLESYLQTELHLYTEQSHKEEKTPMPPISSVLLAFSVLGELHSKLKSFGQMLLKYILRPLASCPSLHAVIESQPNIVIIRFESIMTNLEYPSPSEVFTKIRLVLEVLQKQLLDLPLDTDLENEKTSTVPLAEMLGDMIWEDLSECLIKNCLVYSIPTNSSKLQQYEEIIQSTEEFENALKEMRFLKGDTTDLLKYARNINSHFANKKCQDVIVAARNLMTSEIHNTVKIIPDSKINVPELPTPDEDNKLEVQKVSNTQYHEVMNLEPENTLDQHSFSLPTCRISESVKKLMELAYQTLLEATTSSDQCAVQLFYSVRNIFHLFHDVVPTYHKENLQKLPQLAAIHHNNCMYIAHHLLTLGHQFRLRLAPILCDGTATFVDLVPGFRRLGTECFLAQMRAQKGELLERLSSARNFSNMDDEENYSAASKAVRQVLHQLKRLGIVWQDVLPVNIYCKAMGTLLNTAISEVIGKITALEDISTEDGDRLYSLCKTVMDEGPQVFAPLSEESKNKKYQEEVPVYVPKWMPFKELMMMLQASLQEIGDRWADGKGPLAAAFSSSEVKALIRALFQNTERRAAALAKIK
binds: [1] | [2] | [3] | [4]
